The text below walks through data of paper doi:10.1101/2024.06.20.599911 (bioRxiv, 2024).

Sequences of proteins named here, by UniProt entry; tags and fusion partners are left off. A change or cut given only in a name is not applied to a line headed by its entry.
UniProt Q84W04: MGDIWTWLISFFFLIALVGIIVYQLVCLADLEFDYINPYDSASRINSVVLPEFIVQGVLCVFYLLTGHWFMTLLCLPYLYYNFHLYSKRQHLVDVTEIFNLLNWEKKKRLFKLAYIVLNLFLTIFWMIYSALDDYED
UniProt Q9C7D7: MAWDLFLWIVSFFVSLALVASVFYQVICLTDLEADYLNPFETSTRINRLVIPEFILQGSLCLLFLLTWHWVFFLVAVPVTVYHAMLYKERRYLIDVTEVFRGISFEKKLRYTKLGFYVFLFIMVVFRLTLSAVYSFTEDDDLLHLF
UniProt Q8GWT5: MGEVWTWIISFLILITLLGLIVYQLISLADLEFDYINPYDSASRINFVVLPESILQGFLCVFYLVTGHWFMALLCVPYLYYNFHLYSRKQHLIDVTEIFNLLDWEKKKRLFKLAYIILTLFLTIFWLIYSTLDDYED

Assay [1] concerns the target T1, AtPHT1;1-CubPLV (Arabidopsis thaliana) (UniProt Q8VYM2).
T1 sequence: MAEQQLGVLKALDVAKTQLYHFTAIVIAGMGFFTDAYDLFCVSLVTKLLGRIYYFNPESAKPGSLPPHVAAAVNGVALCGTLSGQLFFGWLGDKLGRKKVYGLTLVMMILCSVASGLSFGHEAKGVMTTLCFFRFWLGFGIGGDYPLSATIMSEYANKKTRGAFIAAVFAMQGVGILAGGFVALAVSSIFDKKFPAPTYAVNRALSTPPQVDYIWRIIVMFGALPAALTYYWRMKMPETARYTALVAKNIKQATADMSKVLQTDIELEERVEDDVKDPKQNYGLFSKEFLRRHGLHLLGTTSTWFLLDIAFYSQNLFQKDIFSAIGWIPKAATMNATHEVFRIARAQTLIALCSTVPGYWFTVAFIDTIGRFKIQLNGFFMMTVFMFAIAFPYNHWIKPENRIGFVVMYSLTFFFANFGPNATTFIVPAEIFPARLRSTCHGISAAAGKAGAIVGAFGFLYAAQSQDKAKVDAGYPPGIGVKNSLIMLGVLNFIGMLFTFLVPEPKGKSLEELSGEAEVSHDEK
In words: two-hybrid.

The target of assay [2] is T2, AtPHF1-CubPLV (Arabidopsis thaliana) (UniProt Q8GYE0).
T2 sequence: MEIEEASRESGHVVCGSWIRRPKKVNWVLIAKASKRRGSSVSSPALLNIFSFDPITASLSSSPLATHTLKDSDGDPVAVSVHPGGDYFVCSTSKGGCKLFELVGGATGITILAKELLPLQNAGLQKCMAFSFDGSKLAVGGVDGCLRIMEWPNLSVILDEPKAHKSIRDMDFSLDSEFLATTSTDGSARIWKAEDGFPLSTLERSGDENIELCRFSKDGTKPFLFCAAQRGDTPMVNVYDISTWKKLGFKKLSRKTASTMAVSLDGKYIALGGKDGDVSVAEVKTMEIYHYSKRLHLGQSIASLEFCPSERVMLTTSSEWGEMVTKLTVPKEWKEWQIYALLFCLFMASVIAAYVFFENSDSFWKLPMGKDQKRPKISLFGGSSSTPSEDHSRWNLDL
Kind of assay: two-hybrid.

No constants are given. Whether binding was seen depends on the method and setting. A result given as binding can be weak or reduced; the word gives no strength.

For NubG-AtCNIH4 (from UniProt Q84W04), the binding result in assay [1] and in assay [2] was “binds” in each case.
On to NubG-AtCNIH1 (from UniProt Q9C7D7), for which the binding result in assay [1] and in assay [2] was “binds” throughout.
Take NubG-AtCNIH3 (from UniProt Q8GWT5): the binding entry in assay [1] and in assay [2] was “binds” each time.
